Test [1] relates to platelet poor citrated plasma. The experiment in a line: Activated partial thromboplastin time (aPTT) test. It counts as biochemical, human. The following applies: drug sample 3000 mg/L; for aPTT: equal volume with plasma, 5 min at 37°C. The procedure: (§1) PT and aPTT tests were carried out simultaneously. Blood samples from three healthy volunteers were collected in sodium citrated blood tubes (Vacutainer, BD). Blood samples were then centrifuged for 15 min at 1500 rpm to prepare platelet poor citrated plasma. The LABiTec (Germany) apparatus was used for the determination of PT and aPTT. Equal volumes of drug samples (3000 mg/L) and platelet-depleted plasma were incubated for 5 min at 37°C. The PT test was performed as follows: a 100 μl of tissue thromboplastin (HUMAN) was added to 50 μl of prewarmed mixture, and clotting time was measured. For the aPTT test, 50 μl of rabbit brain extract was added to equal volume of the prewarmed platelet poor plasma-extract mixture incubated for 1 minute after which 50 μl of 0.025 M calcium chloride (HUMAN) was added and clotting time was measured; PBS was used as control.

Test [2] deals with platelet poor citrated plasma. The experiment in a line: Prothrombin time (PT) test. The class given is biochemical, human. The following applies: drug sample 3000 mg/L; for PT: equal volume with plasma, 5 min at 37°C. The procedure: as §1

As to `COc1ccc2cc([C@H](C)C(=O)O)ccc2c1` [Naproxen], the “aPTT Average ± SD” value in test [1] (average of three volunteers) amounted to 66.4 ± 0.9 s. For the same compound, the aPTT in test [1] (volunteer 1) was 67.4 s; in test [1] (volunteer 2) it was 66.2 s; in test [1] (volunteer 3), 65.5 s. Also, in test [2] (average of three volunteers), the “PT Average ± SD” value came out at 22.3 ± 4.36 s. Besides, the PT was determined as 20 s in test [2] (volunteer 1), 19.5 s in test [2] (volunteer 2) and 27.3 s in test [2] (volunteer 3).

The values above are taken from PMC7271289, “Anti-Inflammatory and Anticoagulant Activities of Synthesized NSAID Prodrug Esters” (Scientifica, 2020).
